According to paper doi:10.1101/2020.01.08.898304 (bioRxiv, 2020):
Like-named read-outs stand apart in the source and are kept apart here. Results are given in words; binding and its absence hold for the method and conditions named. For some of these results: In cells and extracts the contact can be indirect. Some entries that bind do so weakly or less than the wild type. Sequences can lack the tags named with a protein. Blank lines part the entries; values can stand above or below the molecule they belong to.

The chains behind the UniProt entries cited, without tags or fusion partners.
UniProt P36873: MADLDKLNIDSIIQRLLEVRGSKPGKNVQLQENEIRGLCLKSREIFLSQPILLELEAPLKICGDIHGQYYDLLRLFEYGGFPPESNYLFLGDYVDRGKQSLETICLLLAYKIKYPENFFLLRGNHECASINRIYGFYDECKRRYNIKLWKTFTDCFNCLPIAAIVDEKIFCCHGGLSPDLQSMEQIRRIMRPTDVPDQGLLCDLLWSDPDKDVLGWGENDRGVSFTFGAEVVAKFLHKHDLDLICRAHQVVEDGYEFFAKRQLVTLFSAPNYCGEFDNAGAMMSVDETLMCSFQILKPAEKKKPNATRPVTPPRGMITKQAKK

Experiments:
[1] = target: T1, Jacob-GFP (UniProt Q9EPI6); test: FRET or BRET
T1 sequence: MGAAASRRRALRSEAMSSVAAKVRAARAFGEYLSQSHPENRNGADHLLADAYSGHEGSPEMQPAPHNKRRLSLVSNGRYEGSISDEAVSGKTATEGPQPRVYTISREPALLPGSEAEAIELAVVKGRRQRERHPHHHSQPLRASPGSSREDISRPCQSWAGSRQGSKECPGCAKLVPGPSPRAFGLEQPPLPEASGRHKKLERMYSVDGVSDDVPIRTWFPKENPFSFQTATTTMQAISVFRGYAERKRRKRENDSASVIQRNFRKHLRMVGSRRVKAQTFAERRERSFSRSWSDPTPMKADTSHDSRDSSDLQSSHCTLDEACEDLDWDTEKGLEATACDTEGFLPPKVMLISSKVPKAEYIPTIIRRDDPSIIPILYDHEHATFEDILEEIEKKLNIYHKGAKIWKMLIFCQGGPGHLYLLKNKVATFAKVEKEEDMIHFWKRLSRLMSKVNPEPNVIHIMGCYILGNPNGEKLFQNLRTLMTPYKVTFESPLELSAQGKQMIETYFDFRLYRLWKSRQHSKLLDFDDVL

[2] = target: T2, Jacob-173-246-GFP (UniProt Q9EPI6); test: co-IP
T2 sequence: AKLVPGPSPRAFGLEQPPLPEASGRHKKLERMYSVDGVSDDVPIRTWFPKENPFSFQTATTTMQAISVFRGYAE

[3] = target: T3, Jacob-213-246-GFP (UniProt Q9EPI6); test: co-IP
T3 sequence: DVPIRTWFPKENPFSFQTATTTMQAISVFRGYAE

[4] = target: T4, Jacob-310-532-GFP (UniProt Q9EPI6); test: co-IP
T4 sequence: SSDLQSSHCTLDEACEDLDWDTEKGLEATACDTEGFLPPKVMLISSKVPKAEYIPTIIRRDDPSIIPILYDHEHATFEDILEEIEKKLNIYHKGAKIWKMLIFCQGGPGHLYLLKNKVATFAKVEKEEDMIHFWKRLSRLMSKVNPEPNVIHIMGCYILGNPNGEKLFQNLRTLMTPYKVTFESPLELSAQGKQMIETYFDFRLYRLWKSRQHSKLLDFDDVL

[5] = target: T5, GST-LMO4 (UniProt P61968); test: pull-down
T5 sequence: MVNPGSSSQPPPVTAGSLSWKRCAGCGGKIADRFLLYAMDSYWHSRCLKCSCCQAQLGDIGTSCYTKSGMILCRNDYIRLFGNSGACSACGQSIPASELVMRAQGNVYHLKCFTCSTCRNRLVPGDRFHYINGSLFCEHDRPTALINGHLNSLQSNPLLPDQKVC

[6] = target: T1, Jacob-GFP; test: co-IP
[7] = target: T6, MBP-Jacob-45-532 (UniProt Q9EPI6); test: pull-down
T6 sequence: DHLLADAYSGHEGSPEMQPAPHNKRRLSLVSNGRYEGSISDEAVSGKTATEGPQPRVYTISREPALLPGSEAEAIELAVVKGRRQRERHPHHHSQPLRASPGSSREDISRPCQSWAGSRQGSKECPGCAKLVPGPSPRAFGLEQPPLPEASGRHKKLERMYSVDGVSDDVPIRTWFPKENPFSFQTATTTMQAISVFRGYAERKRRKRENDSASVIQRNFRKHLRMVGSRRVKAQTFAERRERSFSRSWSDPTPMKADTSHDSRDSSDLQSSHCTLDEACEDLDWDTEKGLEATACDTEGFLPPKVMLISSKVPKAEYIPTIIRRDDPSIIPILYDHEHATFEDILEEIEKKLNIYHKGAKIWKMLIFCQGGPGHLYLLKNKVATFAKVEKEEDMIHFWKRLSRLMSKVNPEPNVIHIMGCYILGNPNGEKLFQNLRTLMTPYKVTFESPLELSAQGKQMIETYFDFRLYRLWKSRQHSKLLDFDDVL

[8] = target: T5, GST-LMO4; test: pull-down; remark: listed apart in the source
[9] = target: T5, GST-LMO4; test: pull-down; remark: listed apart in the source
[10] = target: CREB-GFP (UniProt P15337); test: FRET or BRET
[11] = target: T5, GST-LMO4; test: pull-down; remark: listed apart in the source
[12] = target: T7, MBP-Jacob-262-532 (UniProt Q9EPI6); test: pull-down
T7 sequence: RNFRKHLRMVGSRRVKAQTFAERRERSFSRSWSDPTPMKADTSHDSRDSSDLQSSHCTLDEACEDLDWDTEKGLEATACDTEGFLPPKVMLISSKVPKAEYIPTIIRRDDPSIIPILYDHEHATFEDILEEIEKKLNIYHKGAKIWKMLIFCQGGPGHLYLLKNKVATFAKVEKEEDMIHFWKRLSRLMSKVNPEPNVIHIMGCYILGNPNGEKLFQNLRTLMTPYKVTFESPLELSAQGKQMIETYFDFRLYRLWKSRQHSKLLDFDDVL

[13] = target: T8, N-terminus of Jacob (117-172 aa), pull-down fragment (UniProt Q9EPI6); test: pull-down
T8 sequence: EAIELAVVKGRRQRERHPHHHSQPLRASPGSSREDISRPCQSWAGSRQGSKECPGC

[14] = target: T1, Jacob-GFP; test: FRET or BRET; remark: listed apart in the source
[15] = target: T1, Jacob-GFP; test: FRET or BRET; remark: listed apart in the source
[16] = target: T9, Jacob-1-228-GFP (UniProt Q9EPI6); test: FRET or BRET
T9 sequence: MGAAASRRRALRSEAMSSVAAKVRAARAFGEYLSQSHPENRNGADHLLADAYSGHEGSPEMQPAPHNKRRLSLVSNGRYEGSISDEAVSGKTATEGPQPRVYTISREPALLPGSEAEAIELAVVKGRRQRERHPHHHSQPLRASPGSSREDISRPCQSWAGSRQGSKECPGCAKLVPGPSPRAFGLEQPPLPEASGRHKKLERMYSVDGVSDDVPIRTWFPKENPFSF

[17] = target: T10, Jacob-262-532-GFP (UniProt Q9EPI6); test: FRET or BRET
T10 sequence: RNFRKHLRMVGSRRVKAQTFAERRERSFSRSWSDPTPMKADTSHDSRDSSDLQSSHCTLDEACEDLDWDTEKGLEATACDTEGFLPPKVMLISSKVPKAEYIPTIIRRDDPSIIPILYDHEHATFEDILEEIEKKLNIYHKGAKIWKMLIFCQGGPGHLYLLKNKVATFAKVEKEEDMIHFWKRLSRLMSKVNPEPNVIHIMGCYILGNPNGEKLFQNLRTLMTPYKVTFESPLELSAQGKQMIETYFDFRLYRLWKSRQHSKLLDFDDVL

[18] = target: T11, LMO4-GFP (UniProt P61968); test: FRET or BRET
T11 sequence: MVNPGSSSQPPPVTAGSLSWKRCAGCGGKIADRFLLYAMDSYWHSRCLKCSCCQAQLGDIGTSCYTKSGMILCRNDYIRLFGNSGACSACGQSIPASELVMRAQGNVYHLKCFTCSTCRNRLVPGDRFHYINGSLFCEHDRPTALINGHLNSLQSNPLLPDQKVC

binding [1]: no binding
Molecule: CREB-1-165-tagRFP (from UniProt P15337-1 1-165) (domain or fragment)

binding [2]: binds | binding [3]: binds | binding [4]: binds
Molecule: mCherry-PP1γ (from UniProt P36873 1-323) (enzyme)

binding [5]: no binding
Molecule: His-SUMO-1-165-CREB (from UniProt P15337-1 1-165) (domain or fragment)

binding [1]: binds
Molecule: CREB-RLuc (from UniProt P15337-1 1-341)

binding [6]: binds
Molecule: Endogenous CREB (HEK293T) (from UniProt P16220 1-327)

binding [7]: binds
Molecule: His-PP1γ (from UniProt P36873 1-323) (enzyme)

binding [8]: binds | binding [9]: binds | binding [5]: binds | binding [7]: binds
Molecule: His-SUMO-CREB (from UniProt P15337-1 1-341)

binding [10]: no binding
B1: LIM2-81-165-tagRFP (domain or fragment, UniProt P61968 81-165)
chain: FGNSGACSACGQSIPASELVMRAQGNVYHLKCFTCSTCRNRLVPGDRFHYINGSLFCEHDRPTALINGHLNSLQSNPLLPDQKVC

binding [11]: no binding | binding [12]: binds | binding [13]: binds
Molecule: REAARECRRKKKEYVKCLENRVAVLENQNKTLIEELKALKDLYCHKSD (domain or fragment, UniProt P15337-1 294-341) [His-SUMO-CREB-294-341]

binding [13]: no binding
B2: His-SUMO-CREB-166-293 (domain or fragment, UniProt P15337-1 166-293)
chain: TTVTVPTPIYQTSSGQYIAITQGGAIQLANNGTDGVQGLQTLTMTNAAATQPGTTILQYAQTTDGQQILVPSNQVVVQAASGDVQTYQIRTAPTSTIAPGVVMASSPALPTQPAEEAARKREVRLMKN

B3: GST-LMO4 (natural protein, UniProt P61968 1-165, looked up)
chain: MVNPGSSSQPPPVTAGSLSWKRCAGCGGKIADRFLLYAMDSYWHSRCLKCSCCQAQLGDIGTSCYTKSGMILCRNDYIRLFGNSGACSACGQSIPASELVMRAQGNVYHLKCFTCSTCRNRLVPGDRFHYINGSLFCEHDRPTALINGHLNSLQSNPLLPDQKVC
binding [14]: binds | binding [15]: binds

binding [13]: no binding
B4: His-SUMO-CREB-1-88 (domain or fragment, UniProt P15337-1 1-88)
chain: MTMDSGADNQQSGDAAVTEAESQQMTVQAQPQIATLAQVSMPAAHATSSAPTVTLVQLPNGQTVQVHGVIQAAQPSVIQSPQVQTVQS

binding [16]: binds | binding [17]: binds | binding [14]: binds | binding [18]: binds
B5: CREB-166-341-tagRFP (domain or fragment, UniProt P15337-1 166-341)
chain: TTVTVPTPIYQTSSGQYIAITQGGAIQLANNGTDGVQGLQTLTMTNAAATQPGTTILQYAQTTDGQQILVPSNQVVVQAASGDVQTYQIRTAPTSTIAPGVVMASSPALPTQPAEEAARKREVRLMKNREAARECRRKKKEYVKCLENRVAVLENQNKTLIEELKALKDLYCHKSD

binding [11]: binds
B6: His-SUMO-166-341-CREB (domain or fragment, UniProt P15337-1 166-341)
chain: TTVTVPTPIYQTSSGQYIAITQGGAIQLANNGTDGVQGLQTLTMTNAAATQPGTTILQYAQTTDGQQILVPSNQVVVQAASGDVQTYQIRTAPTSTIAPGVVMASSPALPTQPAEEAARKREVRLMKNREAARECRRKKKEYVKCLENRVAVLENQNKTLIEELKALKDLYCHKSD
